Patent US20080227159A1
Positions count from the first letter of the chain named. In names and notes the source's numbering stands. Results are given in words; binding and its absence hold for the method and conditions named. For some assays here: Binding seen in cells or lysates may run through a third protein. Some results given as binding are weak or reduced against the parent protein; the word gives no strength. Each block holds one binder with its values, some of them ahead of it.

Tests used:
[1] = biological target: T1, Pfu 4C11 split polymerase fragment II (468-775 Q484R/V604L/A662V-Ss07d7m) (Pyrococcus furiosus) (UniProt P61875); experiment: co-purification of the two fragments after coupled translation in E. coli
T1 sequence: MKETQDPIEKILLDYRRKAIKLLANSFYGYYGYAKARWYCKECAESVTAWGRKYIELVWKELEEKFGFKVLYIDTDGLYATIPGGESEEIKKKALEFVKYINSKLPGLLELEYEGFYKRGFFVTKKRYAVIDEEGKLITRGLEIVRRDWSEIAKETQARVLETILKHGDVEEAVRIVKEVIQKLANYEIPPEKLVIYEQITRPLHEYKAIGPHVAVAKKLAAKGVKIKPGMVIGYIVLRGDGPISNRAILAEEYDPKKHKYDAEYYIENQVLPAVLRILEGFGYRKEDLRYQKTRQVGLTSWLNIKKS

[2] = biological target: T2, 4C11 split polymerase C-terminal fragment, separately expressed: fragment II (Pfu 468-775 Q484R, V604L/A662V) (Pyrococcus furiosus) (UniProt P61875); experiment: separately expressed fragments mixed about 1:1, refolded by dialysis, then Q-Sepharose and SP-Sepharose chromatography with SDS-PAGE of fractions
T2 sequence: T1 sequence

- binding [1]: binds
B1: Pfu 4C11 split polymerase fragment I (1-467 V93R/A318T) (enzyme)
chain: MILDVDYITEEGKPVIRLFKKENGKFKIEHDRTFRPYIYALLRDDSKIEEVKKITGERHGKIVRIVDVEKVEKKFLGKPITVWKLYLEHPQDRPTIREKVREHPAVVDIFEYDIPFAKRYLIDKGLIPMEGEEELKILAFDIETLYHEGEEFGKGPIIMISYADENEAKVITWKNIDLPYVEVVSSEREMIKRFLRIIREKDPDIIVTYNGDSFDFPYLAKRAEKLGIKLTIGRDGSEPKMQRIGDMTAVEVKGRIHFDLYHVITRTINLPTYTLEAVYEAIFGKPKEKVYADEIAKAWESGENLERVAKYSMEDAKTTYELGKEFLPMEIQLSRLVGQPLWDVSRSSTGNLVEWFLLRKAYERNEVAPNKPSEEEYQRRLRESYTGGFVKEPEKGLWENIVYLDFRALYPSIIITHNVSPDTLNLEGCKNYDIAPQVGHKFCKDIPGFIPSLLGHLLEERQKIKTK

- binding [2]: binds
B2: 4C11 split polymerase N-terminal fragment, separately expressed: fragment I (Pfu 1-467, D141A, E143A, A318T) (enzyme)
chain: B1 chain with R93V, D141A, E143A
